The test system of the series is naive mice. Nature of the series: Open field locomotion. The class given is in vivo, mouse. As to conditions: individual animals, listed as myr. Here is the method: Concentration 10 µmol/kg: Wild type mice were habituated to the experimental room for a minimum of 60 min before initiation of the experiment. Female and male mice were run on separate days. Mice were injected s.c. with 10 μmol/kg mPD5 or sterile PBS directly before being placed in open field boxes (40 cm x 40 cm x 80 cm) for 2.5 hours with up to four mice in boxes at any one time. A video camera placed above the open field recorded the animals’ behaviour and Ethovision XT 13 (Noldus) was used to track the distance travelled by the […]
Concentration 30 + 50 µmol/kg: Animals were habituated to the experimental room for a minimum of 60 min before initiation of the experiment. At initiation of experiment, the mice (all male) were injected subcutaneously (s.c.) with mPD5 (30 or 50 μmol/kg, pH adjusted to approximately 7 with 5 M NaOH) or 0.9 % saline (B.Braun, Germany) and left in their home cage for 60 min. After exactly one hour, the mice were placed in an open field (40 cm x 40 cm x 80 cm) for 60 min. A video camera placed above the open field recorded the animals’ […]
animal. The experiment was run in cohort with Figure 2B+C of (9)). […]

Values joined by “and” are separate entries in the source; they are usually repeats but may differ in a detail not shown here. Equal entries are not always repeated. Further values from the same series stand in other lists.

`CCCCCCCCCCCCCC(=O)N(CCOCCOCCC(=O)N[C@@H](Cc1c[nH]cn1)C(=O)N[C@@H](Cc1c[nH]c2ccccc12)C(=O)N[C@@H](CC(C)C)C(=O)N[C@@H](CCCCN)C(=O)N[C@H](C(=O)O)C(C)C)CCOCCOCCC(=O)N[C@@H](Cc1c[nH]cn1)C(=O)N[C@@H](Cc1c[nH]c2ccccc12)C(=O)N[C@@H](CC(C)C)C(=O)N[C@@H](CCCCN)C(=O)N[C@H](C(=O)O)C(C)C` [mPD5, myristoyl-NPEG4-(HWLKV)2]: the “open field locomotion per 5min bin (Fig S8A)” value is 24.6381 and 12.5649 (myr 30 sc, time bin 10); 6.319 and 13.9565 and 0.7545 and 19.9932 and 23.1332 and 8.855 (myr 30 sc, time bin 15); 2.436 and 11.2802 and 0.2573 and 13.8011 and 21.7437 and 5.87 (myr 30 sc, time bin 20); 0.7647 and 5.632 and 4.615 and 19.5906 and 21.1128 and 10.559 (myr 30 sc, time bin 25); 0.758 and 10.4492 and 0.5588 and 17.1349 and 21.8311 and 6.638 (myr 30 sc, time bin 30); 11.621 and 9.116 (myr 50 sc, time bin 10). Moreover, the “open field locomotion per 5min bin (Fig S8A)” value reads like this: (myr 50 sc, time bin 15) 9.351 and 8.889 and 2.673 and 11.9894 and 6.662 and 12.2507 and 11.1024; (myr 50 sc, time bin 20) 7.309 and 7.613 and 0.7207 and 9.662 and 8.576 and 11.1677 and 7.267; (myr 50 sc, time bin 25) 1.61 and 6.95 and 1.94 and 7.566 and 10.4592 and 12.1498 and 10.0093; (myr 50 sc, time bin 30) 9.273 and 7.539 and 1.11 and 7.985 and 2.094 and 7.883 and 4.781.

The record behind these values is publication PMC11530130, “Peripherally restricted PICK1 inhibitor mPD5 ameliorates pain behaviors in murine inflammatory and neuropathic pain models” (JCI Insight, 2024).
